# Results as given in PubChem BioAssay (NCATS).
# The list shows a part of the results. These are further read-outs of the screen, such as a control signal, another cell line or another target. No call is given for them. Compounds called inactive in the main read-out are mostly missing here. The note in brackets gives the kind of curve behind each potency; many fits are weak.
# Assay: S16 Schwann cell PMP22 intronic element beta-lactamase assay (AID 624044)
# Details: S16 rat Schwann cells, PMP22 element beta-lactamase FRET, 24 h; measured here: 460 nm blue channel
# Summary of the method: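 Rat S16 Schwann cells with beta-Lac driven by a PMP22 intronic element, compound-treated 24 h at 37 °C. LiveBLAzer FRET B/G read: 460 nm normalized to potassium clavulanate vs DMSO; 535 nm FRET as viability; concentration-effect curves classified.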
row,SMILES,AC50
1,NS(=O)(=O)c1cc2c(cc1Cl)N[C@@H](CC1CCCC1)NS2(=O)=O,"2.39 µM [falling, full curve, poor fit]"
2,O=S(c1cc(Cl)cc(Cl)c1O)c1cc(Cl)cc(Cl)c1O,"14.1 µM [falling, single point]"
3,CN(C)CCc1c[nH]c2ccc(Cn3cncn3)cc12,"0.00631 µM [falling, full curve, poor fit]"
4,C=C1CC[C@H](O)C/C1=C/C=C1\CCC[C@]2(C)[C@@H]([C@H](C)CCCC(C)(C)O)CC[C@@H]12,"14.1 µM [falling, single point]"
5,CCC(C(=O)O)C1OC(C(C)C(O)C(C)C(=O)C(CC)C2OC3(C=CC(O)C4(CCC(C)(C5CCC(O)(CC)C(C)O5)O4)O3)C(C)CC2C)C(C)CC1C (stereo unspecified),"7.07 µM [falling, partial curve]"
6,C[Se]CC[C@H](N)C(=O)O,"0.0501 µM [falling, full curve, poor fit]"
7,CC(C)OC(=O)Nc1ccc2nc(-c3cscn3)[nH]c2c1,"2.24 µM [falling, partial curve, poor fit]"
8,O=C(CS(=O)Cc1ccco1)NCC=CCOc1cc(CN2CCCCC2)ccn1 (stereo unspecified),"0.0446 µM [falling, full curve, poor fit]"
9,Oc1c(Br)cc(Br)c2cccnc12,"15.8 µM [falling, partial curve]"
10,O=C(Nc1ccc(O)cc1)c1ccccc1O,"22.4 µM [rising, partial curve]"
11,CCOCC(O)COc1ccc(NC(=O)CC[S+](C)C)cc1 (stereo unspecified),"2.82 µM [rising, full curve, poor fit]"
12,CN[C@@H]1[C@H](O[C@@H]2O[C@H](CO)[C@@H](N)[C@H](O)[C@@H]2O)O[C@H]2C[C@@H](N)[C@@H](O[C@H]3[C@@H](O)[C@H](O)[C@H](N)C[C@@H]3N)O[C@H]2[C@H]1O,"6.73 µM [falling, partial curve, poor fit]"
13,CC(C)(Cc1c[nH]c2ccccc12)NCC(O)COc1ccccc1C#N (stereo unspecified),"0.0316 µM [falling, full curve, poor fit]"
14,C[C@@]12C=CC(=O)C=C1CCC1C3CC(O)[C@@](O)(C(=O)CO)[C@]3(C)CC(O)[C@]12F (stereo partly specified),"11.2 µM [falling, partial curve, poor fit]"
15,NS(=O)(=O)c1cc(-c2nn[nH]n2)c(NCc2cccs2)cc1Cl,"0.891 µM [falling, full curve, poor fit]"
16,O=C(NNCS(=O)(=O)O)c1ccncc1,"7.07 µM [falling, full curve]"
17,CCOC(=S)SSC(=S)OCC,"0.0999 µM [falling, full curve, poor fit]"
18,CCCSS/C(CCO)=C(/C)N(C=O)Cc1cnc(C)nc1N,"1.26 µM [falling, full curve, poor fit]"

# Copied from the entries so far, eleven compounds:
row,SMILES,AC50
8,O=C(CS(=O)Cc1ccco1)NCC=CCOc1cc(CN2CCCCC2)ccn1 (stereo unspecified),"0.0446 µM [falling, full curve, poor fit]"
9,Oc1c(Br)cc(Br)c2cccnc12,"15.8 µM [falling, partial curve]"
10,O=C(Nc1ccc(O)cc1)c1ccccc1O,"22.4 µM [rising, partial curve]"
11,CCOCC(O)COc1ccc(NC(=O)CC[S+](C)C)cc1 (stereo unspecified),"2.82 µM [rising, full curve, poor fit]"
12,CN[C@@H]1[C@H](O[C@@H]2O[C@H](CO)[C@@H](N)[C@H](O)[C@@H]2O)O[C@H]2C[C@@H](N)[C@@H](O[C@H]3[C@@H](O)[C@H](O)[C@H](N)C[C@@H]3N)O[C@H]2[C@H]1O,"6.73 µM [falling, partial curve, poor fit]"
13,CC(C)(Cc1c[nH]c2ccccc12)NCC(O)COc1ccccc1C#N (stereo unspecified),"0.0316 µM [falling, full curve, poor fit]"
14,C[C@@]12C=CC(=O)C=C1CCC1C3CC(O)[C@@](O)(C(=O)CO)[C@]3(C)CC(O)[C@]12F (stereo partly specified),"11.2 µM [falling, partial curve, poor fit]"
15,NS(=O)(=O)c1cc(-c2nn[nH]n2)c(NCc2cccs2)cc1Cl,"0.891 µM [falling, full curve, poor fit]"
16,O=C(NNCS(=O)(=O)O)c1ccncc1,"7.07 µM [falling, full curve]"
17,CCOC(=S)SSC(=S)OCC,"0.0999 µM [falling, full curve, poor fit]"
18,CCCSS/C(CCO)=C(/C)N(C=O)Cc1cnc(C)nc1N,"1.26 µM [falling, full curve, poor fit]"

# (next part)

row,SMILES,AC50
1,C[C@@H]1C(SC2Cn3cnc[n+]3C2)=C(C(=O)[O-])N2C(=O)[C@H]([C@@H](C)O)[C@@H]12 (stereo partly specified),"3.16 µM [falling, full curve, poor fit]"
2,CCNC(=O)[C@@H]1CCCN1C(=O)[C@H](CCCN=C(N)N)NC(=O)[C@H](CC(C)C)NC(=O)[C@@H](Cc1c[nH]c2ccccc12)NC(=O)[C@H](Cc1ccc(O)cc1)NC(=O)[C@H](CO)NC(=O)[C@H](Cc1c[nH]c2ccccc12)NC(=O)[C@H](Cc1cnc[nH]1)NC(=O)[C@@H]1CCC(=O)N1,"17.8 µM [falling, partial curve]"
3,Cc1ccc(C(C)(C)c2ccc(C)cc2)cc1,"8.91 µM [rising, partial curve, poor fit]"
4,COc1ccc(CN2CCN(C(c3ccc(F)cc3)c3ccc(F)cc3)CC2)c(OC)c1OC,"25.1 µM [rising, single point]"
5,CCN(CC)CCC(=O)N1c2ccccc2Sc2ccc(Cl)cc21,"25.1 µM [rising, single point]"
6,CC(C)CC(NC(=O)C(COC(C)(C)C)NC(=O)C(Cc1ccc(O)cc1)NC(=O)C(CO)NC(=O)C(Cc1c[nH]c2ccccc12)NC(=O)C(Cc1cnc[nH]1)NC(=O)C1CCC(=O)N1)C(=O)NC(CCCN=C(N)N)C(=O)N1CCCC1C(=O)NNC(N)=O (stereo unspecified),"0.891 µM [falling, full curve, poor fit]"
7,CCN1CCN(C(=O)NC(C(=O)NC2C(=O)N3C(C(=O)O)=C(CSc4nnnn4C)CSC23)c2ccc(O)cc2)C(=O)C1=O (stereo unspecified),"25.1 µM [falling, single point]"
8,OCC(O)C(O)C(O)C(O)CO (stereo unspecified),"7.94 µM [falling, partial curve]"
9,CC12C=CC(=O)C=C1[C@@H](F)CC1C2C(O)CC2(C)C1CC[C@]2(O)C(=O)CO (stereo partly specified),"5.62 µM [falling, full curve, poor fit]"
10,CC(=O)[C@H]1CC[C@H]2[C@@H]3C=CC4=CC(=O)CC[C@@]4(C)[C@H]3CC[C@]12C,"0.107 µM [falling, full curve, poor fit]"
11,CC(=O)OCC(=O)[C@@]1(O)[C@H](C)C[C@@H]2[C@H]3CCC4=CC(=O)C=C[C@]4(C)[C@]3(F)[C@@H](O)C[C@@]21C,"1.9 µM [falling, full curve, poor fit]"
12,COC(=O)C(c1ccccc1Cl)N1CCc2sccc2C1 (stereo unspecified),"12.6 µM [falling, single point]"
13,CCC(C)n1ncn(-c2ccc(N3CCN(c4ccc(OCC5COC(Cn6cncn6)(c6ccc(Cl)cc6Cl)O5)cc4)CC3)cc2)c1=O (stereo unspecified),"14.1 µM [falling, partial curve, poor fit]"
14,CC1CCC(O)C/C1=C\C=C1/CCCC2(C)C1CCC2C(C)/C=C/C(C)C(C)C (stereo unspecified),"8.91 µM [falling, single point]"
15,CO[C@]1(NC(=O)CSCC#N)C(=O)N2C(C(=O)O)=C(CSc3nnnn3C)CS[C@H]21,"0.0501 µM [falling, partial curve, poor fit]"
16,COc1cc(C(=O)N2CCCCCCC2)cc(OC)c1OC,"9.99 µM [rising, full curve, poor fit]"
17,CCCCCCOc1ccc(C(=N)N(CCCC)CCCC)c2ccccc12,"11.2 µM [falling, partial curve, poor fit]"
18,Cc1c(Cn2ccnc2)c2ccccc2n1CCC(=O)O,"12.6 µM [falling, single point]"
